Measured values: article PMC4844422, “Activity Regulation by Heteromerization of Arabidopsis Allene Oxide Cyclase Family Members” (Plants, 2016)
Results are given in words; binding and its absence hold for the method and conditions named. Some results given as binding are weak or reduced against the parent protein; the word gives no strength.

T1: Arabidopsis allene oxide cyclase 4 (AOC4), as co-expressed in heteromers (Arabidopsis thaliana) (UniProt Q93ZC5)
T1 sequence: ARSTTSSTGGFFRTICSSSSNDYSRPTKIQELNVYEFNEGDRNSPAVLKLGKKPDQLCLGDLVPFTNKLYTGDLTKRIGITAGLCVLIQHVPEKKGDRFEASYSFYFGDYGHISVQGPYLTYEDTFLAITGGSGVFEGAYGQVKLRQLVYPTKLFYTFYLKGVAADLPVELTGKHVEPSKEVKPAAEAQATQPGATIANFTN


Target: T1, Arabidopsis allene oxide cyclase 4 (AOC4), as co-expressed in heteromers (Arabidopsis thaliana)
Test: sequential affinity co-purification (Ni-NTA, then StrepTactin); two AOCs co-expressed in E. coli from one vector, one His-tagged and one Strep-tag-II-tagged; eluate of Ni-NTA-agarose put on StrepTrap HP; immunoblots with anti-His-tag antibody and StrepTactin-HRP after SDS at 96 °C

| binding | Binder |
| --- | --- |
| binds | Arabidopsis allene oxide cyclase 1 (AOC1), as co-expressed in heteromers (enzyme, UniProt Q9LS03 79-254) PSKVQELSVYEINDLDRHSPKILKNAFSFRFGLGDLVPFTNKLYTGDLKKRVGITAGLCVVIEHVPEKNGDRFEATYSFYFGDYGHLSVQGPYLTYEDSFLAITGGAGIFEGAYGQVKLQQLVYPTKLFYTFYLKGLANDLPLELIGTPVPPSKDVEPAPEAKALKPSGVVSNFTN |
| binds | Arabidopsis allene oxide cyclase 2 (AOC2), as co-expressed in heteromers (enzyme, UniProt Q9LS02 78-253) PSKVQELSVYEINELDRHSPKILKNAFSLMFGLGDLVPFTNKLYTGDLKKRVGITAGLCVVIEHVPEKKGERFEATYSFYFGDYGHLSVQGPYLTYEDSFLAITGGAGIFEGAYGQVKLQQLVYPTKLFYTFYLKGLANDLPLELTGTPVPPSKDIEPAPEAKALEPSGVISNYTN |
